# Measurements: PubChem BioAssay AID1671190 (National Center for Advancing Translational Sciences (NCATS), 2021)
# Amino acid sequences for entries named in this document (tags omitted). A change or cut given only in a name is not applied to a line headed by its entry.
# UniProt P18054: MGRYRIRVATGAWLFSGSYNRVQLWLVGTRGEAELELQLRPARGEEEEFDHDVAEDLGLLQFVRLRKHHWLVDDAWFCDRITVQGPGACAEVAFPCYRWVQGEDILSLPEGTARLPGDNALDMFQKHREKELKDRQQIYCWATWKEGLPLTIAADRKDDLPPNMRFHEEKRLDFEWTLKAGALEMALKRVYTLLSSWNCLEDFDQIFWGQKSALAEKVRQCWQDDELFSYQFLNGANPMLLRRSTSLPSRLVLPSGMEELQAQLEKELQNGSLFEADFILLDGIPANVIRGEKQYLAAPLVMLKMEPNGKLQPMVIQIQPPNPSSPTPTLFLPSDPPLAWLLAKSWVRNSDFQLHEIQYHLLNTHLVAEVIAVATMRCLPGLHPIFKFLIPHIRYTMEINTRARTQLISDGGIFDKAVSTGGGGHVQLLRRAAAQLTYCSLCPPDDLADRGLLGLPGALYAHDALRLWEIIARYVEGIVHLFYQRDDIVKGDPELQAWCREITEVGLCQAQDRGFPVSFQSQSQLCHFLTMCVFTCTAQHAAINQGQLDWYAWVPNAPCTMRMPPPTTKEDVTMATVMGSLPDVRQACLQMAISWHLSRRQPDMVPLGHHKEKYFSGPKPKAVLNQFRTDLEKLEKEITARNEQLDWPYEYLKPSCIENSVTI
# The campaign covered roughly 580,000 compounds. About 6,100 (1.1%) were called active. Inconclusive results, whose numbers are uncertain, are shown with a selection of clear calls. Calls follow the shape of the dose curve; as a rule, active = well fitted inhibition curve with a large enough effect; inconclusive = small, poorly fitted or top-dose-only effect, or another doubt; inactive = no such curve, though single readings can be large or run the other way. A potency beside an inconclusive call is a rough fit, not a confirmed value.
# Target: Polyunsaturated fatty acid lipoxygenase ALOX12 (Homo sapiens) (UniProt P18054)
# Assay: Primary qHTS assay for inhibitors of human arachidonate 12S-lipoxygenase (ALOX12): Round 2
# Conditions: purified 12hLO, xylenol orange hydroperoxide absorbance; series mostly up to 108 µM
# In short: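 Purified human 12hLO (150 nM final) in 25 mM Hepes, 0.01% Triton X-100, pH 7.0 was preincubated 15 min at room temperature with compound. Then 40 uM arachidonic acid was added, 30 min. Hydroperoxide was read by Fe-XO absorbance ratio 573/405 nm.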
# Potency is read from the fitted curve at half-maximal effect.
row,Structure (SMILES),Potency
1,Cc1cc(O)ccc1Nc1nc(-c2cccs2)cs1,"inconclusive: 44.7 µM [inhibitor, partial curve, poor fit]"
2,Cc1nc(-c2coc3c(O)c(O)ccc3c2=O)cs1,"inconclusive: 7.94 µM [inhibitor, full curve, poor fit]"
3,COc1ccc(-c2c(C)oc3cc(OS(C)(=O)=O)ccc3c2=O)cc1,"inconclusive: 39.8 µM [inhibitor, partial curve, poor fit]"
4,O=C(N/N=C\c1cc(Br)cs1)c1ccc(Cl)cc1,inactive
5,CCCN1C(SCC(=O)Nc2c(C)cccc2C)=NS(=O)(=O)c2ccccc21,"inconclusive: 0.355 µM [inhibitor, full curve, poor fit]"
6,O=C(/C=C/c1ccc(Cl)cc1Cl)N1CCN(c2ccccc2[N+](=O)[O-])CC1,inactive
7,COc1ccc2[nH]c(C)c(CCNC(=S)Nc3ccccc3OC)c2c1,"inconclusive: 44.7 µM [inhibitor, partial curve]"
8,CC1(C(=O)NS(=O)(=O)c2ccc(C#N)cc2)CCN1C(=O)C1CCCCC1 (stereo unspecified),"inconclusive: 126 µM [inhibitor, single point]"
9,CC(=O)n1cc(Nc2ccccc2C(=O)O)c2ccccc21,"inconclusive: 31.6 µM [inhibitor, single point]"
10,CCN1CCN(c2ccc(NC(=O)c3cnc4ccccc4n3)cc2C)CC1,"inconclusive: 63.1 µM [inhibitor, partial curve, poor fit]"
11,CCCNc1ccc2nnc(CC)n2n1,inactive
12,CCNC(=O)N1CCC2(CC1)CC(N(CC)CC)CCO2 (stereo unspecified),inactive
13,CC(=O)NC12CC3CC(C1)CC(C(=O)NC(c1ccccc1)c1ccccc1)(C3)C2,inactive
14,Cc1nnc(NC(=O)C2CCN(S(=O)(=O)c3ccc(Cl)cc3)CC2)s1,"inconclusive: 100 µM [inhibitor, single point]"
15,CCOC(=O)N1CCN(C(=O)C2CCN(Cc3ccc(OC)cc3OC)CC2)CC1,"inconclusive: 2.82 µM [inhibitor, full curve, poor fit]"
16,CCN(C[C@H]1N[C@@](Cc2ccccc2)(C(=O)OC)[C@H]2C(=O)N(Cc3ccccc3)C(=O)[C@@H]12)C(=O)c1ccccc1,"inconclusive: 70.8 µM [inhibitor, single point]"
17,CC(C)Oc1ccc2c(NC(=O)C3CCOCC3)nn(CC(F)(F)F)c2c1,inactive
18,Cc1ccc(-c2nn(-c3ccccc3)cc2/C=N/n2c(-c3cccs3)n[nH]c2=S)cc1,"inconclusive: 20 µM [inhibitor, single point]"
19,CCc1cccc2c(C(=O)CN3C(=O)NC4(CCOc5ccccc54)C3=O)c[nH]c12 (stereo unspecified),"inconclusive: 89.1 µM [inhibitor, partial curve, poor fit]"
20,CCC(CO)Oc1cc(NCc2cccc(C(F)(F)F)c2)c2ncn(C(C)C)c2c1 (stereo unspecified),"inconclusive: 31.6 µM [inhibitor, partial curve, poor fit]"
21,C#CCOc1ccc(/C=C2/C(=O)NN(c3ccc(F)cc3)C2=O)cc1OC,"inconclusive: 44.7 µM [inhibitor, partial curve, poor fit]"

# Looked up above.
# Value of `Cc1nc(-c2coc3c(O)c(O)ccc3c2=O)cs1` under Potency: inconclusive: 7.94 µM [inhibitor, full curve, poor fit]
# Value of `CCCN1C(SCC(=O)Nc2c(C)cccc2C)=NS(=O)(=O)c2ccccc21` under Potency: inconclusive: 0.355 µM [inhibitor, full curve, poor fit]
# Value of `O=C(N/N=C\c1cc(Br)cs1)c1ccc(Cl)cc1` under Potency: inactive

# (further entries)

row,Structure (SMILES),Potency
1,Cc1ccc(/C=C/C(=O)c2ccccc2)o1,active: 14.1 µM
2,CCCCn1c(=O)[nH]c(=O)c2c1nc(CCC(=O)NC1CCN(CC)CC1)n2CC(C)C,"inconclusive: 28.2 µM [inhibitor, single point]"
3,O=c1[nH]c2cc(C(F)(F)F)c(N3CCOCC3)cc2n(CP(=O)(O)O)c1=O,"inconclusive: 14.1 µM [inhibitor, partial curve, poor fit]"
4,O=S(=O)(Nc1ccc(C(O)(C(F)(F)F)C(F)(F)F)cc1)c1cccc2cccnc12,"inconclusive: 35.5 µM [inhibitor, partial curve]"
5,Cc1oc2cc(OS(C)(=O)=O)ccc2c(=O)c1Oc1ccccc1Br,"inconclusive: 100 µM [inhibitor, single point]"
6,COc1ccc(C(=O)ON=C2c3ccccc3-c3ccccc32)cc1,"inconclusive: 5.62 µM [inhibitor, full curve, poor fit]"
7,N#Cc1c(NC(=O)C2CC(c3ccccc3O)=NO2)sc2c1CCC2 (stereo unspecified),"inconclusive: 3.16 µM [inhibitor, full curve, poor fit]"
8,CCN(C(=O)c1cc2c(Cl)nc3ccc(C)cc3c2s1)c1cc(OC)ccc1OC,"inconclusive: 141 µM [inhibitor, partial curve, poor fit]"
9,CCC(=O)Nc1ccc(C)cc1-c1nc2ccccc2n(Cc2ccccc2)c1=O,"inconclusive: 89.1 µM [inhibitor, partial curve, poor fit]"
10,Cc1ccc2cc(CN(Cc3cccs3)Cc3nnnn3CC3CCCO3)c(=O)[nH]c2c1 (stereo unspecified),"inconclusive: 20 µM [inhibitor, partial curve, poor fit]"
11,Cc1oc(-c2cccc(Cl)c2)nc1CSCC(=O)O,"inconclusive: 70.8 µM [inhibitor, partial curve, poor fit]"
12,COCC(C)NC(=O)c1ccccc1OC(C)=O (stereo unspecified),"inconclusive: 31.6 µM [inhibitor, partial curve, poor fit]"
13,CCCNC(=O)C(C)NC(=O)c1nn(C)c(=O)c2ccccc12 (stereo unspecified),inactive
14,COc1cccc(C(=O)OCCOc2ccccc2Cl)c1O,"inconclusive: 39.8 µM [inhibitor, partial curve, poor fit]"
15,CC(=O)NC1C(OCc2ccccc2)OC2COC(c3ccccc3)OC2C1OCC(=O)O (stereo unspecified),inactive
16,Cc1ccc(-n2nnnc2C2(Nc3ccccc3C)CCCCC2)cc1,inactive
17,Cc1cccc(Cn2c(NCC(C)O)nc3c2c(=O)n(C)c(=O)n3C)c1 (stereo unspecified),inactive
18,CC1(c2ccccc2)CC(C)(C)N(C(=O)c2ccccc2Cl)c2ccccc21 (stereo unspecified),inactive
19,O=C(CN1C(=O)S/C(=C\c2cccc(Cl)c2)C1=O)Nc1ccc2oc(=O)ccc2c1,"inconclusive: 44.7 µM [inhibitor, partial curve, poor fit]"
20,CCOc1ccc(-c2nc(CNC(=O)Nc3ccccc3Cl)c(C)o2)cc1,"inconclusive: 15.8 µM [inhibitor, partial curve, poor fit]"
